Taken from: PubChem BioAssay AID686938 (Drosophila RNAi Screening Center, 2013)
Aim: 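Looking for CRAC channel components and the factors controlling them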 (primary screen). Cell system: Drosophila S2R+ cells. Reagents: long dsRNA against Drosophila genes, about 0.25 µg dsRNA per well, roughly 10,000 cells. Time to read-out: 5 days of knock-down before the calcium assay. Treatment: thapsigargin (SERCA pump blocker) to empty calcium stores; entry signal taken 4 min after adding it. Detection: 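Duplicate raw fluo-4 intensities per well from a plate reader, at rest and four minutes after thapsigargin emptied calcium stores; entry-to-rest ratio filled for only some wells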. Reading the numbers: calcium entry signal: higher = stronger calcium signal after store depletion; resting calcium signal: higher = higher resting calcium signal. Active means: 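Hit if the duplicate-averaged plate z-score for entry over resting signal is under −3; wells with weak total dye signal (Fmax z < −2) or more than 5 off-targets removed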. Meaning of the calls: active = strongly reduced calcium entry; inactive = no strong reduction.
The screen tested about 23,000 reagents; this is a random part of those that have a named target and a result. Of all reagents, 75 (0.33%) are marked active. 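Raw plate signals without normalisation; calls rest on plate z-scores that were not deposited; ratio present for only 364 wells.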 Names joined by + are all predicted targets of the reagent. Reagent sequences are not shown. Not given: the dose of the treatment.

The opening 7 entries as a preview:
no.	gene knocked down	dsRNA	calcium entry signal, replicate 1 (fluorescence units)	calcium entry signal, replicate 2 (fluorescence units)	resting calcium signal, replicate 1 (fluorescence units)	resting calcium signal, replicate 2 (fluorescence units)	Call
1	Sfxn1-3 (Sideroflexin 1/3)	DRSC12183	3.32e7	5.24e7	1.58e7	2.26e7	inactive
2	PGRP-SA (Peptidoglycan recognition protein SA)	DRSC19420	3.03e7	4.67e7	1.53e7	2.24e7	inactive
3	CG33012	DRSC06287	2.85e7	3.63e7	1.52e7	1.69e7	inactive
4	CG33012	DRSC06288	2.82e7	3.84e7	1.57e7	1.76e7	inactive
5	Uba5 (Ubiquitin-like activating enzyme 5)	DRSC19775	3.47e7	5.48e7	1.69e7	2.53e7	inactive
6	YL-1	DRSC02765	4.12e7	4.76e7	1.94e7	2.23e7	inactive
7	CG13577	DRSC04213	3.27e7	4.70e7	1.82e7	2.12e7	inactive

Results, repeating the preview:
no.	gene knocked down	dsRNA	calcium entry signal, replicate 1 (fluorescence units)	calcium entry signal, replicate 2 (fluorescence units)	resting calcium signal, replicate 1 (fluorescence units)	resting calcium signal, replicate 2 (fluorescence units)	Call
1	Sfxn1-3 (Sideroflexin 1/3)	DRSC12183	3.32e7	5.24e7	1.58e7	2.26e7	inactive
2	PGRP-SA (Peptidoglycan recognition protein SA)	DRSC19420	3.03e7	4.67e7	1.53e7	2.24e7	inactive
3	CG33012	DRSC06287	2.85e7	3.63e7	1.52e7	1.69e7	inactive
4	CG33012	DRSC06288	2.82e7	3.84e7	1.57e7	1.76e7	inactive
5	Uba5 (Ubiquitin-like activating enzyme 5)	DRSC19775	3.47e7	5.48e7	1.69e7	2.53e7	inactive
6	YL-1	DRSC02765	4.12e7	4.76e7	1.94e7	2.23e7	inactive
7	CG13577	DRSC04213	3.27e7	4.70e7	1.82e7	2.12e7	inactive
8	CG9593	DRSC16508	2.81e7	5.87e7	1.43e7	6.30e7	inactive
9	twi (twist)	DRSC04720	4.49e7	5.19e7	2.39e7	2.79e7	inactive
10	twi (twist)	DRSC23185	5.42e7	3.51e7	2.91e7	1.53e7	inactive
11	CG42249	DRSC19383	3.76e7	4.92e7	1.76e7	2.44e7	inactive
12	CG42249	DRSC19826	4.52e7	4.12e7	2.08e7	1.75e7	inactive
13	PGAP3 (Post-GPI attachment to proteins 3)	DRSC04989	3.87e7		1.95e7		inactive
14	fru (fruitless)	DRSC16951	3.62e7	3.93e7	4.65e7	2.11e7	inactive
15	fru (fruitless)	DRSC16952	3.93e7	4.93e7	2.39e7	4.37e7	inactive
16	fru (fruitless)	DRSC16953	5.31e7	5.66e7	5.06e7	2.75e7	inactive
17	fru (fruitless)	DRSC21600	2.71e7	2.86e7	1.64e7	1.34e7	inactive
18	CG15262	DRSC01975	3.95e7	2.29e7	1.72e7	1.19e7	inactive
19	CG7514	DRSC08597	2.49e7	3.27e7	1.18e7	1.38e7	inactive
20	cort (cortex)	DRSC02148	4.20e7	1.98e7	1.81e7	9.96e6	inactive
21	PpD3 (Protein phosphatase D3)	DRSC16796	3.97e7	3.46e7	1.95e7	1.79e7	inactive
22	CG13250	DRSC11698	3.21e7	5.03e7	1.62e7	2.29e7	inactive
23	LSm1 (Like Sm 1)	DRSC04458	3.49e7	3.79e7	1.90e7	1.61e7	inactive
24	Galphai (G protein alpha subunit i)	DRSC11168	4.39e7	3.55e7	2.83e7	1.51e7	inactive
25	ScsbetaA (Succinyl-coenzyme A synthetase beta subunit, ADP-forming)	DRSC14446	2.90e7	2.84e7	1.41e7	1.38e7	inactive
26	alpha-Est1 (alpha-Esterase-1)	DRSC12612	2.41e7	2.48e7	1.09e7	1.20e7	inactive
27	CG5539	DRSC04510	4.17e7	3.91e7	2.16e7	1.80e7	inactive
28	CG4991	DRSC19928	3.68e7	4.14e7	1.68e7	1.84e7	inactive
29	CG10366	DRSC02046	5.55e7		2.66e7		inactive
30	Syx17 (Syntaxin 17)	DRSC08591	4.37e7	3.56e7	2.88e7	1.54e7	inactive
31	ERp44 (Endoplasmic reticulum protein 44)	DRSC20215	4.68e7	4.70e7	2.11e7	2.05e7	inactive
32	CG13926	DRSC08395	3.80e7	4.75e7	1.93e7	2.12e7	inactive
33	Cpr65Eb (Cuticular protein 65Eb)	DRSC11026	3.50e7	4.30e7	1.66e7	1.75e7	inactive
34	CG11581	DRSC19407	2.87e7	2.97e7	1.51e7	1.17e7	inactive
35	fsd (fates-shifted)	DRSC06166	2.25e7	4.04e7	1.09e7	1.56e7	inactive
36	CG33255 (retired record) + hpRNA:CR32205 + CR42838	DRSC09611	3.25e7	4.05e7	1.75e7	1.88e7	inactive
37	GC1	DRSC15322	4.03e7	3.66e7	1.83e7	1.90e7	inactive
38	mei-P26 (meiotic P26)	DRSC17735	2.29e7	2.53e7	1.47e7	1.56e7	inactive
39	mei-P26 (meiotic P26)	DRSC23049	3.34e7	3.67e7	1.80e7	1.70e7	inactive
40	trem (trade embargo)	DRSC15575	2.18e7	2.86e7	3.08e7	1.34e7	inactive
41	CG3609	DRSC00620	3.67e7	3.63e7	1.67e7	1.64e7	inactive
42	PolZ2 (DNA polymerase zeta subunit 2)	DRSC12325	4.86e7	3.60e7	2.32e7	1.79e7	inactive
43	CG15803	DRSC15121	3.80e7	4.80e7	4.31e7	2.13e7	inactive
44	CG17724	DRSC06687	4.18e7	4.21e7	2.12e7	1.88e7	inactive
45	da	DRSC03517	5.45e7	6.03e7	2.22e7	2.56e7	inactive
46	CG12995	DRSC19515	4.25e7	3.82e7	2.17e7	1.66e7	inactive
47	Ugt37C2 (UDP-glycosyltransferase family 37 member C2)	DRSC02247	4.92e7	2.62e7	2.91e7	1.29e7	inactive
48	CG11906	DRSC06096	2.84e7	2.84e7	1.26e7	1.40e7	inactive
49	CG9698	DRSC16539	4.04e7	3.24e7	1.90e7	1.44e7	inactive
50	CG9839	DRSC16574	3.10e7	3.23e7	1.40e7	1.43e7	inactive
51	Gga	DRSC18260	3.40e7	3.72e7	1.56e7	1.70e7	inactive
52	Atxn7 (Ataxin 7)	DRSC00726	4.31e7		2.63e7		inactive
53	Atxn7 (Ataxin 7)	DRSC23138	3.72e7	2.89e7	2.24e7	1.47e7	inactive
54	CG34204	DRSC03897	2.05e7	3.91e7	9.51e6	1.52e7	inactive
55	CG18557	DRSC00524	3.47e7	3.87e7	1.64e7	1.72e7	inactive
56	l(2)37Bb (lethal (2) 37Bb)	DRSC02088	4.19e7	5.57e7	2.13e7	2.76e7	inactive
57	CG12523	DRSC09895	2.04e7	4.01e7	1.09e7	1.87e7	inactive
58	CG17598	DRSC20636	3.42e7	4.22e7	1.85e7	1.79e7	inactive
